Data on 40 compounds can be found in PubChem BioAssay AID445 (National Center for Advancing Translational Sciences (NCATS), 2006).

The list shows a part of the results. Shown are side measurements of this screen, not its main read-out; they come without a call. Most of these compounds were active or inconclusive in the main read-out, so they are no random draw. The note in brackets gives the kind of curve behind each potency; many fits are weak.

What is called AC50 is the midpoint of the concentration-response curve, whichever way the signal moves.

This test is described as follows: IkB Signaling. The following applies: ABC-DLBCL IkBa-CBG/CBR dual luciferase ratio (green luciferase fused to IkBa over red control in OCI-Ly3 lymphoma cells), 4 h; measured here: control luc red channel unless noted. Summed up: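 In this assay, an IκBα–CBG68 fusion accumulates when IKK-driven degradation is blocked; native CBR normalizes for cell number. OCI-Ly3 cells were treated 4 h with compound and doxycycline, then green and red light read after Chroma-Glo addition.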
Consider `COc1ccc2c(c1)c(N1CCCC1=O)c(C(=O)Nc1ccc(OC)c(Cl)c1)n2C`, for which the AC50 is 31.6 µM [falling, single point].

For `COc1ccc(Nc2ncc(C(=O)Nc3cccc(Cl)c3)c3ccccc23)cc1`, the AC50 is 5.01 µM [falling, full curve].

As for `Cc1cc(N2C3CCC2CC(O)(c2ccc(F)cc2)C3)nc(-c2ccccc2)n1` (stereo not given), the AC50 was 15.8 µM [falling, partial curve].

Take `COc1ccc(Br)cc1CNC(=O)CCc1nc(-c2ccccc2F)no1`: the AC50 was 31.6 µM [falling, partial curve, poor fit].

Turning to `CC(C)CCNC(=O)c1cnc2sc(N3CCCCCC3)nn2c1=O`, the half-maximal activity concentration (AC50) was 0.1 µM [rising, full curve].

For the compound `O=C(O)c1ccc2c3c(cccc13)C(=O)N(c1ccccc1O)C2=O`, the AC50 was 0.501 µM [falling, full curve].

`Cc1ccc(O)c(NC(=O)c2cc(-c3ccc(F)cc3)no2)c1`: the AC50 was 15.8 µM [falling, single point].

In the case of `COc1ccc(CNC(=O)c2ccc(Cn3c(=O)c4cccn4c4cccnc43)cc2)c(OC)c1`, the AC50 is 39.8 µM [falling, single point].

Consider `COC(=O)CSc1cc(SCC(=O)OC)c(C#N)c(SCC(=O)OC)c1`, for which the AC50 was 31.6 µM [falling, single point].

On to `COc1ccc(-n2nc3c(N4CCC(C(=O)N5CCC(C)CC5)CC4)nnc(C)c3c2C)cc1`, for which the AC50 is 15.8 µM [falling, single point].

With `CCOC(=O)c1snc(C(=O)NC2CCCCC2)c1N`, the AC50 was 20 µM [falling, partial curve].

For `CCCC(=O)Nc1ccc(NC(=O)c2ccccc2Cl)nc1`, the AC50 was 15.8 µM [falling, partial curve].

On to `COc1cccc(-c2nc(CS(=O)(=O)CC(=O)N3CCN(c4ccccc4)CC3)c(C)o2)c1`, for which the AC50 is 39.8 µM [falling, single point].

Turning to `Cc1ccc(Cl)cc1N1CCN(C(=O)c2ccc3c(Cl)c4c(nc3c2)CCCC4)CC1`, the AC50 is 20 µM [falling, partial curve].

Regarding `COc1ccccc1CNC(=O)CCc1c(C)c2cc3c(C)coc3cc2oc1=O`, the AC50 is 20 µM [falling, partial curve].

With `CCn1ccc2c(OCC(=O)Nc3ccc(OC)cc3OC)cccc2c1=O`, the AC50 was 39.8 µM [falling, single point].

As to `O=c1ccc(-c2ccccc2)nn1Cc1c(F)cccc1Cl`, the AC50 is 3.16 µM [falling, single point].

Take `CCn1cc(C(=O)NCCC(C)C)c(=O)c2cc(S(=O)(=O)N(C)C3CCCCC3)ccc21`: the AC50 was 31.6 µM [falling, single point].

On to `O=C1CC(O)(C(F)(F)F)Oc2c1ccc1ccccc21` (stereo not given), for which the AC50 is 10 µM [falling, partial curve].

As to `O=C(Cn1c(-c2cccs2)cc2cc(F)ccc21)NCCc1ccc(Cl)cc1`, the AC50 was 6.31 µM [falling, partial curve].

On to `O=S(=O)(Nc1ccc(O)c(Sc2nc3ccccc3s2)c1)c1cc(Cl)ccc1Cl`, for which the AC50 was 31.6 µM [falling, partial curve].

As to `Cc1c(Cl)cccc1NC(=O)C(=O)NCCc1csc2nc(-c3ccccc3F)nn12`, the AC50 was 15.8 µM [falling, single point].

Consider `COc1ccc(-c2noc(CN(C)S(=O)(=O)c3c(C)cc(C)cc3C)n2)cc1OC`, for which the AC50 is 39.8 µM [falling, single point].

For `Cc1ccc(-c2nc(CCNC(=O)c3ccc(C)c(C)c3)cs2)cc1`, the AC50 is 20 µM [falling, partial curve].

Take `c1ccc(Nc2nc(-c3cccnc3)cs2)nc1`: the AC50 was 5.01 µM [falling, partial curve].

For `CC(C)(C)OC(=O)N1CCC(c2c(C(=O)NCc3ccccc3)cnn2-c2cccc(F)c2)CC1`, the AC50 is 12.6 µM [falling, partial curve].

Turning to `COc1ccccc1-c1nc2n(n1)C(c1ccccc1Cl)C(C(=O)Nc1cccnc1)=C(C)N2` (stereo not given), the AC50 was 20 µM [falling, partial curve].

`CCSc1nn(CC(=O)Nc2cccc(CC)c2)c(N)c1S(=O)(=O)c1ccccc1`: the half-maximal activity concentration (AC50) is 31.6 µM [falling, single point].

Regarding `Cc1oc(-c2ccc(Cl)cc2)nc1CN1CCCC(C(=O)NCCc2ccc(Cl)cc2)C1` (stereo not given), the AC50 is 20 µM [falling, partial curve].

As for `COCCCNC(=O)C1CCN(Cc2cc3ccccc3n2Cc2ccccc2C)CC1`, the AC50 was 12.6 µM [falling, partial curve, poor fit].

Take `Cc1ccc(S(=O)(=O)c2c(O)cc(C)c(NS(=O)(=O)c3ccc(Br)cc3)c2C)cc1`: the AC50 is 15.8 µM [falling, partial curve].

Take `O=C(CSc1nc2c([nH]c3ccccc32)c(=O)n1-c1ccc(Cl)cc1)N1CCc2ccccc21`: the AC50 is 1.58 µM [rising, partial curve].

Consider `O=C(Cn1ncn2c(cc3sccc32)c1=O)NCCc1ccccc1`, for which the AC50 was 6.31 µM [rising, single point].

For `CCCn1c(NC(=O)c2ccccc2)nc2ccccc21`, the AC50 was 31.6 µM [rising, partial curve] [measured here: IkB-luc green channel].

Regarding `C=CCn1c(=O)c2ccccc2n2c(SCC(=O)NCc3cccs3)nnc12`, the AC50 is 12.6 µM [falling, partial curve].

`COc1cc(/C=C/c2nc(C#N)c(N3CCN(C)CC3)o2)cc(OC)c1OC`: the AC50 is 39.8 µM [falling, single point].

In the case of `CN(C(=O)c1ccc2c(c1)N(Cc1cccc(Cl)c1)C(=O)c1ccccc1S2(=O)=O)C1CCCCC1`, the AC50 was 12.6 µM [falling, partial curve, poor fit].

As for `COCCNC(=O)c1cnc2sc(N3CCCCC3)nn2c1=O`, the AC50 is 39.8 µM [rising, single point].

Consider `CSc1cccc(NC(=O)C2CCN(c3nc4ccccc4[nH]3)CC2)c1`, for which the AC50 was 25.1 µM [falling, partial curve].

As for `Cc1ccc(Cn2c(SCc3ccc(C(=O)NC4CCCCC4)cc3)nc3ccncc32)cc1`, the AC50 was 12.6 µM [falling, partial curve].
